# Source: paper PMC3536697
# These are yes or no findings as the source states them, for the method shown. In cells and extracts the contact can be indirect. Some results given as binding are weak or reduced against the parent protein; the word gives no strength. Tags and fused reporters may be left off the sequences shown.
# B1: GST-CaTen1 fusion protein (Candida albicans Ten1) (protein, UniProt Q5A873 1-126)
# chain: MTKLILNPGDLSSIFPDISISNPQRIRILCQVIKYIPNESCLIIDKIPTVAESSTNKESLVKIDVFDILEDILSIEIINKGTIINIDGYYDGEKIQPIDIYEINGINFTIENIEILNQLNQMKSLT
# Target: HIS6-SUMO-CaStn1N (Candida albicans Stn1, amino acid 1-239), wild type (Candida albicans)
# Assay: pull-down; C. albicans HIS6-SUMO-CaStn1N and GST-CaTen1 made in E. coli, complex isolated by tandem affinity chromatography as for the C. glabrata Stn1-Ten1 complex; SDS-PAGE and Coomassie
binder,measurement,value
B1,binding,binds
